Measured values taken from the supplement of paper PMC7666118.
This is one part of the list.

Sequences of proteins named here, by UniProt entry; tags and fusion partners are left off. A change or cut given only in a name is not applied to a line headed by its entry.
UniProt Q96DC7: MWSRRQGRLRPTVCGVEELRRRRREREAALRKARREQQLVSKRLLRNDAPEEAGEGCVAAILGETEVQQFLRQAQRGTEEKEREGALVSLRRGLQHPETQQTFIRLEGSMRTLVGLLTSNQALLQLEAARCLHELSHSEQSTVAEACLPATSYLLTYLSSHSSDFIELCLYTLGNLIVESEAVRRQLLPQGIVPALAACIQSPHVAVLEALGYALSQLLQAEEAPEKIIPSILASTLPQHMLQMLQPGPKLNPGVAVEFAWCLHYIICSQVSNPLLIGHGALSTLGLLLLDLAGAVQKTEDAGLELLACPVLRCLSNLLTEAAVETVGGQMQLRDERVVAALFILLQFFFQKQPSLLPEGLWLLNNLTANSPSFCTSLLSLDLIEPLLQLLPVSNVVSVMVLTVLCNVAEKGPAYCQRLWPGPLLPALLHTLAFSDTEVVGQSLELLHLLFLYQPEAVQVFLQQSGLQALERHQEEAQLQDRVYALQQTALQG
UniProt P63313: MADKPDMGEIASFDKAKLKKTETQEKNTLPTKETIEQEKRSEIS
UniProt Q13049: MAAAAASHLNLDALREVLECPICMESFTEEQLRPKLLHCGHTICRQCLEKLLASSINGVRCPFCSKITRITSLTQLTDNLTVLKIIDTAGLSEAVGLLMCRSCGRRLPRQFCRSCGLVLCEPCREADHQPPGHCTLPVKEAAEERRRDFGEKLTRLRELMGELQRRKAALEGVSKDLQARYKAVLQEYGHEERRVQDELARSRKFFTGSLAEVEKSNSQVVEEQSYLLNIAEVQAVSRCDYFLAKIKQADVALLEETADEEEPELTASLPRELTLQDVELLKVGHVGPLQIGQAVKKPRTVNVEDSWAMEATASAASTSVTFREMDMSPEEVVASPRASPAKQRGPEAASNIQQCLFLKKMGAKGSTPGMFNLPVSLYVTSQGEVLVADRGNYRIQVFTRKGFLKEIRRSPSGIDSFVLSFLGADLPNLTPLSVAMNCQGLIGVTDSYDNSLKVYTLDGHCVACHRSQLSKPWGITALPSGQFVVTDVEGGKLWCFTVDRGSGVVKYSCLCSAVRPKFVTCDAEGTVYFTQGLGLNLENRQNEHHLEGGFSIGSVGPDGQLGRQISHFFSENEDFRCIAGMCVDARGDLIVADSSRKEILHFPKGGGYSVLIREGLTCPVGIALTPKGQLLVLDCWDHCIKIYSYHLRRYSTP
UniProt P62072: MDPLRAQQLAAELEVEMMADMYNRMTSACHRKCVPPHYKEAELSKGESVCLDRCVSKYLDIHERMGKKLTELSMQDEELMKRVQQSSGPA
UniProt P49755: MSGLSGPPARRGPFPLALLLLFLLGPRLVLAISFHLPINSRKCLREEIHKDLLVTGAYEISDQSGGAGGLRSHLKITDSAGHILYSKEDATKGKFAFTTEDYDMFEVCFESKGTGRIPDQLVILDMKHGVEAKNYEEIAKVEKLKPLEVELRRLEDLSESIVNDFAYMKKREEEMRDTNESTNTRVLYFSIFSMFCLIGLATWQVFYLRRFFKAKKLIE
UniProt Q15645: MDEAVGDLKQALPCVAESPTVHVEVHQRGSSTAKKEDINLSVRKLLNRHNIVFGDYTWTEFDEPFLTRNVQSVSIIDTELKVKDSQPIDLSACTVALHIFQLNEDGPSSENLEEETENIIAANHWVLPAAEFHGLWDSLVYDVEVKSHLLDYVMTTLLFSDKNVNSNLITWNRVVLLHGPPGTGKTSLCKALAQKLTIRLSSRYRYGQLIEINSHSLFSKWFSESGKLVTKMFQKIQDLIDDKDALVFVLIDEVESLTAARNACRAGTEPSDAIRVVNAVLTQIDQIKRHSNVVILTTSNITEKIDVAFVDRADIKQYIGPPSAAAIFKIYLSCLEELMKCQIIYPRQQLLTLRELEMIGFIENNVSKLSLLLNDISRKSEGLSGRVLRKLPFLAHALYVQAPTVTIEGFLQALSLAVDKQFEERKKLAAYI
UniProt Q96FX7: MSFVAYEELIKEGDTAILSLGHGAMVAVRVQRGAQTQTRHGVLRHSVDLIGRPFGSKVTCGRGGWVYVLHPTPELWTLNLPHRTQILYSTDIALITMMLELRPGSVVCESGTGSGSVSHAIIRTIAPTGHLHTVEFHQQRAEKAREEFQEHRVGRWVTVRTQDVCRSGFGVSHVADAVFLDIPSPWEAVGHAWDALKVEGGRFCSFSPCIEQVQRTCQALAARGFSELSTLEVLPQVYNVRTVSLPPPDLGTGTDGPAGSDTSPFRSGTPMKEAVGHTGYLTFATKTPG
UniProt P57088: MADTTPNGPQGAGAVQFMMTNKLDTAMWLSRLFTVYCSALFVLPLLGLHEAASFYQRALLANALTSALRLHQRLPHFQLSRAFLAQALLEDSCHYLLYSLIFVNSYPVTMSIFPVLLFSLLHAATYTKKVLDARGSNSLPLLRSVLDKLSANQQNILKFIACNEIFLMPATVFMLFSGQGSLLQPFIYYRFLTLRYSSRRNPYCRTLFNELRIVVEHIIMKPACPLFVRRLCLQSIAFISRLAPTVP
UniProt Q86X19: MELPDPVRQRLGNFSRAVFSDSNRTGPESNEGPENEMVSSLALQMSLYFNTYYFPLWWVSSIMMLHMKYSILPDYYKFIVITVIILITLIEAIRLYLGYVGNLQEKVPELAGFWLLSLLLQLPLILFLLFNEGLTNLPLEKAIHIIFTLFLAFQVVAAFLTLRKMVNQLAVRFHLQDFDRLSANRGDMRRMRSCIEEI
UniProt Q9BTX1: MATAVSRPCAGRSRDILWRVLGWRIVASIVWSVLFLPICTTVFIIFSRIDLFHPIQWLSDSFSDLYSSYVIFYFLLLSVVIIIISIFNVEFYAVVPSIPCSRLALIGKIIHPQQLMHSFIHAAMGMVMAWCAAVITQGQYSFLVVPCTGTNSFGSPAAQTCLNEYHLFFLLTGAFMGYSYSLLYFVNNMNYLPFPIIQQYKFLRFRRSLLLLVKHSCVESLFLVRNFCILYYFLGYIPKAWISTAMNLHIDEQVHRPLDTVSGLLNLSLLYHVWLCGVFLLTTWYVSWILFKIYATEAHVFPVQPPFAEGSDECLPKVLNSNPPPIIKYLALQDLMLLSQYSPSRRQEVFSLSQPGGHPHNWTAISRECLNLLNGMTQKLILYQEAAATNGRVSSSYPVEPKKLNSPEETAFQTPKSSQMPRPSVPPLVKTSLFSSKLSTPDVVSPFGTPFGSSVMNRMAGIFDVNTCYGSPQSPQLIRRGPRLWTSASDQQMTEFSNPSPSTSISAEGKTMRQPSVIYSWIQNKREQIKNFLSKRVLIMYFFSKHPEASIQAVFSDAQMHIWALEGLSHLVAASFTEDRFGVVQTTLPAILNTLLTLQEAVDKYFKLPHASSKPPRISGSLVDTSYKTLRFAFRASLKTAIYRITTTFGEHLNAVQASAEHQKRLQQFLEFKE
UniProt O75157: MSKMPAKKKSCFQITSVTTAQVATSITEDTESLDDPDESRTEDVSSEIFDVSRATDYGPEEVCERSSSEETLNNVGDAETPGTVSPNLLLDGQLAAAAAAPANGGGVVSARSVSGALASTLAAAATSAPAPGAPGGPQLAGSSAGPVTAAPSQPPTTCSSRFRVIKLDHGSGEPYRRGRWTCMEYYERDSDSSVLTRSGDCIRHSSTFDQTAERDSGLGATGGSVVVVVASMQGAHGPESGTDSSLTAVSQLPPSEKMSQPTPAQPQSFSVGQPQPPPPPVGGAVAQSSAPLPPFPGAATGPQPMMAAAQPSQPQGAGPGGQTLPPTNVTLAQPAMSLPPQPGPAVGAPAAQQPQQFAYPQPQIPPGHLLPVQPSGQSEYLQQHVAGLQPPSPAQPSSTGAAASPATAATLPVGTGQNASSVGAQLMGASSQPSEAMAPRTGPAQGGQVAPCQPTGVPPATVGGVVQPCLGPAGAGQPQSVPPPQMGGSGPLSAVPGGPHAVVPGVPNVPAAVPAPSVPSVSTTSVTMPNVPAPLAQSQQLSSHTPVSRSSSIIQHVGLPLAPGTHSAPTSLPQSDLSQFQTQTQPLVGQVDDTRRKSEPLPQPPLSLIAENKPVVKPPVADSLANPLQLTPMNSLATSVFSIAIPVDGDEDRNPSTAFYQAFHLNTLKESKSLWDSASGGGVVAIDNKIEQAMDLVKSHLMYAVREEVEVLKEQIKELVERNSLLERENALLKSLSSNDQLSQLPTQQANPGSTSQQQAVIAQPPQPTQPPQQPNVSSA
UniProt Q12888: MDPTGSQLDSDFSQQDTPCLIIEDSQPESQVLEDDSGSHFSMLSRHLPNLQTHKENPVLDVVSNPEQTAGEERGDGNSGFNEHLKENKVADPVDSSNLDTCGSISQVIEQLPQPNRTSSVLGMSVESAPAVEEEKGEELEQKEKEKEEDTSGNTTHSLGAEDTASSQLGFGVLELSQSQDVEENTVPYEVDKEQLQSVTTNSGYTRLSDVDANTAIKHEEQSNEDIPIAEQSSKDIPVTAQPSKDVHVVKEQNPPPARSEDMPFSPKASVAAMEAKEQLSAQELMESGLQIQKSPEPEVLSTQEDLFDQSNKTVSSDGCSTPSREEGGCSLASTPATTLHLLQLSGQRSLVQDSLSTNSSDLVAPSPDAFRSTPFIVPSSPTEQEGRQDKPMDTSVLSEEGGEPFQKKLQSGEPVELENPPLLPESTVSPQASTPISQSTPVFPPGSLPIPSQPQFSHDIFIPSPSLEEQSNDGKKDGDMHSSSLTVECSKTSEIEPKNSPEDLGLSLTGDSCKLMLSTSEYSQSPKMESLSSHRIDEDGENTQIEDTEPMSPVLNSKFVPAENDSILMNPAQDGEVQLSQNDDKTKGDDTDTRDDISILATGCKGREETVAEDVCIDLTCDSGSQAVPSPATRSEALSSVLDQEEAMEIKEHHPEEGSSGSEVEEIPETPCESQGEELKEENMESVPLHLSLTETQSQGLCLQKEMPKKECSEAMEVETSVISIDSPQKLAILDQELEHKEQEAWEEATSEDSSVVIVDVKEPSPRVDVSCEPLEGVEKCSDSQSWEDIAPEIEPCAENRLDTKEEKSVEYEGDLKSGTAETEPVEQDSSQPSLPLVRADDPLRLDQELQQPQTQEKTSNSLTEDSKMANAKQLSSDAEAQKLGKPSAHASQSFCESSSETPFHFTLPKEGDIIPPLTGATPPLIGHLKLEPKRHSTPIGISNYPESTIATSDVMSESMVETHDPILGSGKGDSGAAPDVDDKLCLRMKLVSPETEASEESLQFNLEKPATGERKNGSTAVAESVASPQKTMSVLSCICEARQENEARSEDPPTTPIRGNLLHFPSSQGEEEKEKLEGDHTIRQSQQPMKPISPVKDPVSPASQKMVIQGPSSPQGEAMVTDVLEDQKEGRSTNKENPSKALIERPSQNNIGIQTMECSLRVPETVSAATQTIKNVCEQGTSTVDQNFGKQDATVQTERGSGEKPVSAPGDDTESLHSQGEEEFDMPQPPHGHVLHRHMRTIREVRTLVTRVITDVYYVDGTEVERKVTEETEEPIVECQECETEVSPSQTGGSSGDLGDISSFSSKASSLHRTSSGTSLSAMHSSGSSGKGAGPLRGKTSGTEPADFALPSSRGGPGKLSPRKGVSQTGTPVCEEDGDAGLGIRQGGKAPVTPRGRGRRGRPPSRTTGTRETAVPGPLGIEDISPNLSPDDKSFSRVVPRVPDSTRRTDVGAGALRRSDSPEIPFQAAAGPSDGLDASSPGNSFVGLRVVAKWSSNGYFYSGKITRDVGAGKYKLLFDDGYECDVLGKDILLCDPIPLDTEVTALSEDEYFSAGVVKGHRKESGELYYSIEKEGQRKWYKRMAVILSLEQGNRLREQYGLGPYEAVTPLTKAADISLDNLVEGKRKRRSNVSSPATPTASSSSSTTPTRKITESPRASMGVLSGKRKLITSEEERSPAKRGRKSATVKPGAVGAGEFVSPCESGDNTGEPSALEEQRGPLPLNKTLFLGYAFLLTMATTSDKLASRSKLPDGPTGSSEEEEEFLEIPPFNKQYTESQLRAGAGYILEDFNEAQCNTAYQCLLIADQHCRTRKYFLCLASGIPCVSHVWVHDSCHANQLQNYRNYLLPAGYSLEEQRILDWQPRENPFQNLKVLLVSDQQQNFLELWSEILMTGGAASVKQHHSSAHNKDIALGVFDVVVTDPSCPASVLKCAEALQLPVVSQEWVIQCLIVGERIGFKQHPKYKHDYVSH
UniProt Q8NE00: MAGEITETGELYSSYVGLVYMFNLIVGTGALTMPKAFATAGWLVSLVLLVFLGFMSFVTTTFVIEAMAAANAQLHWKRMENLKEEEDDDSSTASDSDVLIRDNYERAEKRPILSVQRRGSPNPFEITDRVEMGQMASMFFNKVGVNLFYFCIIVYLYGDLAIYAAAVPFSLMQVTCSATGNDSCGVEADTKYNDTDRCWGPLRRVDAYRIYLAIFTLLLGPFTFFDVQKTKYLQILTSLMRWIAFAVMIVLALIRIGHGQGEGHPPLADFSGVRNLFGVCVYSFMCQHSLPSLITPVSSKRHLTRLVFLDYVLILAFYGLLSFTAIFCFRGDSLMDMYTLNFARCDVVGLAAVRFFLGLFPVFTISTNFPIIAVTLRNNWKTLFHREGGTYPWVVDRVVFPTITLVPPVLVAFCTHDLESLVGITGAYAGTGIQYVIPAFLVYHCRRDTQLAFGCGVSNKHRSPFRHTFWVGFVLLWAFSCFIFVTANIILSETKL

compound: COc1ccc(Cn2ccc3cc(C)c(C(=O)NO)cc32)cc1; experiment: dose-dependent thermal stabilisation call (2D-TPP, DLPTP, 10% FDR) (binary (1 = stabilised)); higher = stabilised by the compound; details: system: HL-60 intact cells; concentration range 0.04-10 µM
Description: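 2D thermal proteome profiling in intact HL-60 cells treated with BRD-3811 (0, 0.04, 0.29, 2, 10 uM) for 90 min at 37 C, then heated 3 min at one of 12 temperatures (42-63.9 C). Soluble protein was quantified by TMT10 MS. The value is the DLPTP call of the paper: dose-dependent thermal stabilisation over all temperatures at 10% FDR (F-test of a dose-response against a flat model); one experiment, one call per tested protein.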

**Q.** How did the “dose-dependent thermal stabilisation call” value turn out when TMCO6 (UniProt Q96DC7) was run?
**A.** The value was inactive: 0.

**Q.** With TMSB10 (UniProt P63313) as the target, how does the “dose-dependent thermal stabilisation call” value read?
**A.** Its value is inactive: 0.

**Q.** Which “dose-dependent thermal stabilisation call” value does the source give for TRIOBP (UniProt Q9H2D6) here?
**A.** The value was inactive: 0.

**Q.** How did the “dose-dependent thermal stabilisation call” value turn out when TMED1 (UniProt Q13445) was run?
**A.** The value was inactive: 0.

**Q.** With TRIM32 (UniProt Q13049) as the target, how does the “dose-dependent thermal stabilisation call” value read?
**A.** The value was inactive: 0.

**Q.** TMEM160 (UniProt Q9NX00) was tested. Which “dose-dependent thermal stabilisation call” value did it give?
**A.** The value was inactive: 0.

**Q.** TMC6 (UniProt Q7Z403) was tested. Which “dose-dependent thermal stabilisation call” value did it give?
**A.** Its value is inactive: 0.

**Q.** TIMM10 (UniProt P62072) was tested. Which “dose-dependent thermal stabilisation call” value did it give?
**A.** Its value is inactive: 0.

**Q.** How did the “dose-dependent thermal stabilisation call” value turn out when TIMM17A (UniProt Q99595) was run?
**A.** The value was inactive: 0.

**Q.** TMED10 (UniProt P49755) was tested. Which “dose-dependent thermal stabilisation call” value did it give?
**A.** Its value is inactive: 0.

**Q.** Which “dose-dependent thermal stabilisation call” value does the source give for TSTA3 (UniProt Q13630) here?
**A.** The value was inactive: 0.

**Q.** Which “dose-dependent thermal stabilisation call” value does the source give for TNRC6A (UniProt Q8NDV7) here?
**A.** Its value is inactive: 0.

**Q.** How did the “dose-dependent thermal stabilisation call” value turn out when THTPA (UniProt Q9BU02) was run?
**A.** Its value is inactive: 0.

**Q.** TNFRSF10A (UniProt O00220) was tested. Which “dose-dependent thermal stabilisation call” value did it give?
**A.** The value was inactive: 0.

**Q.** Which “dose-dependent thermal stabilisation call” value does the source give for TMEM111 (UniProt Q9P0I2) here?
**A.** Its value is inactive: 0.

**Q.** How did the “dose-dependent thermal stabilisation call” value turn out when TRIP13 (UniProt Q15645) was run?
**A.** Its value is inactive: 0.

**Q.** For TRMT61A (UniProt Q96FX7), which “dose-dependent thermal stabilisation call” value is on record?
**A.** The value was inactive: 0.

**Q.** How did the “dose-dependent thermal stabilisation call” value turn out when TRMT11 (UniProt Q7Z4G4) was run?
**A.** Its value is inactive: 0.

**Q.** For TMEM33 (UniProt P57088), which “dose-dependent thermal stabilisation call” value is on record?
**A.** Its value is inactive: 0.

**Q.** How did the “dose-dependent thermal stabilisation call” value turn out when TSEN54 (UniProt Q7Z6J9) was run?
**A.** The value was inactive: 0.

**Q.** For TMEM17 (UniProt Q86X19), which “dose-dependent thermal stabilisation call” value is on record?
**A.** Its value is inactive: 0.

**Q.** TRUB1 (UniProt Q8WWH5) was tested. Which “dose-dependent thermal stabilisation call” value did it give?
**A.** The value was inactive: 0.

**Q.** TMEM48 (UniProt Q9BTX1) was tested. Which “dose-dependent thermal stabilisation call” value did it give?
**A.** Its value is inactive: 0.

**Q.** How did the “dose-dependent thermal stabilisation call” value turn out when TOR1A (UniProt O14656) was run?
**A.** The value was inactive: 0.

**Q.** TMEM14B (UniProt Q9NUH8) was tested. Which “dose-dependent thermal stabilisation call” value did it give?
**A.** The value was inactive: 0.

**Q.** TMEM161A (UniProt Q9NX61) was tested. Which “dose-dependent thermal stabilisation call” value did it give?
**A.** Its value is inactive: 0.

**Q.** TRAM1 (UniProt Q15629) was tested. Which “dose-dependent thermal stabilisation call” value did it give?
**A.** Its value is inactive: 0.

**Q.** For TSC22D2 (UniProt O75157), which “dose-dependent thermal stabilisation call” value is on record?
**A.** Its value is inactive: 0.

**Q.** Which “dose-dependent thermal stabilisation call” value does the source give for TIAL1 (UniProt Q01085) here?
**A.** Its value is inactive: 0.

**Q.** Which “dose-dependent thermal stabilisation call” value does the source give for TPCN1 (UniProt Q9ULQ1) here?
**A.** Its value is inactive: 0.

**Q.** For TSPO, which “dose-dependent thermal stabilisation call” value is on record?
**A.** The value was inactive: 0.

**Q.** For TP53BP1 (UniProt Q12888), which “dose-dependent thermal stabilisation call” value is on record?
**A.** The value was inactive: 0.

**Q.** TJP2 (UniProt Q9UDY2) was tested. Which “dose-dependent thermal stabilisation call” value did it give?
**A.** The value was inactive: 0.

**Q.** For TMEM184C (UniProt Q9NVA4), which “dose-dependent thermal stabilisation call” value is on record?
**A.** The value was inactive: 0.

**Q.** For TRIM16 (UniProt O95361), which “dose-dependent thermal stabilisation call” value is on record?
**A.** Its value is inactive: 0.

**Q.** With TMEM104 (UniProt Q8NE00) as the target, how does the “dose-dependent thermal stabilisation call” value read?
**A.** The value was inactive: 0.
